# Source: PubChem BioAssay AID504594 (Broad Institute, 2011)
# “And” between values parts separate entries of the source, which are not always exact repeats. Identical values can stand only once. Hit rate of the full screen: of about 2,000 compounds, fewer than 10 were called active.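 The calls were made as follows: active = growth inhibition of at least 75% in every replicate, which also brings the mean inhibition to 75% or more; inconclusive = mean inhibition 75% or more but some replicate under 75%; inactive = the rest.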 The list shows a part of the results.
# Assay: growth inhibition of PfHsp90-dependent yeast, primary screen, antimalarial PfHsp90 inhibitor project, S. cerevisiae, BacTiter-Glo luminescence (AID 504594);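 also: 0% = DMSO neutral control wells and 100% = 20 µM radicicol control wells; higher value means stronger growth inhibition because the sign is flipped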
# Conditions: S. cerevisiae expressing PfHsp90, BacTiter-Glo growth, 48 h; at 9.4 µM; active compounds read high
row,SMILES,growth inhibition
1,O=S(=O)(c1ccc(F)cc1)N1CCCCC1c1cccnc1 (configuration not stated),inactive: -1.69%
2,CC(=O)C1=C(C)OC(N)=C(C(=O)OC(C)C)C12C(=O)Nc1ccccc12 (configuration not stated),inactive: 5.93%
3,[N-]=[N+]=CC(=O)OC[C@H](N)C(=O)O,inactive: -4.59%
4,Fc1ccc(C(OCCN2CCCC2)c2ccc(Br)cc2)cc1 (configuration not stated),inactive: 1.04%
5,CCOC(=O)C1=C(C)OC(N)=C(C(=O)OCC)[C@@]12C(=O)N(CC(N)=O)c1ccccc12,inactive: -3.76%
6,C[N+]1(C)[C@@H]2CC[C@H]1CC(OC(=O)C(CO)c1ccccc1)C2 (some centres not stated),inactive: 4.41%
7,C=C1[C@@H](C)[C@H]2[C@H](Cc3ccccc3)NC(=O)[C@]23OC(=O)/C=C/[C@H](O)CCC[C@@H](C)C/C=C/[C@H]3[C@@H]1O,inactive: 0.455%
8,CC/C(=C\C=C\[C@@H]1C=C[C@@H]2CCC[C@H]2[C@@H]1C(=O)c1ccc[nH]1)[C@@H]1O[C@@H]([C@@H](C)C(=O)O)CC[C@@H]1C,inactive: -7.02%
9,CN1CCN(C(=O)OC2c3nccnc3C(=O)N2c2ccc(Cl)cn2)CC1 (configuration not stated),inactive: 6.28%
10,CCn1ccnc1CN1CCCC(C(=O)c2cc(F)ccc2OC)C1 (configuration not stated),inactive: -6.85%
11,CCNC(=O)[C@H]1O[C@@H](n2cnc3c(N)ncnc32)[C@H](O)[C@@H]1O,inactive: -1%
12,Cc1cccc(C)c1NC1=NCCCS1,inactive: -4.38%
13,Cc1cc(OCc2cc(C(=O)O)oc2C)c2c3c(c(=O)oc2c1)CCCC3,inactive: -7.84%
14,NC(=O)CN1CCCC1=O,inactive: -9.68%
15,O=C1NC(=O)C2(Cc3ccccc3N3CCCC32)C(=O)N1c1ccc(Cl)cc1 (configuration not stated),inactive: -0.293%
16,Cc1c2ccncc2c(C)c2c1[nH]c1ccccc12,inactive: 2.27%
17,Cc1nc2ccccc2c(=O)n1-c1ccc(C(=O)O)cc1,inactive: -0.979%
18,COc1cc(/C=C2\C(=O)NC(=O)N(c3ccccc3)C2=O)c([N+](=O)[O-])cc1OC,inactive: -1.53%
19,CN1C2CCC1CC(OC(=O)CCN1CCCC1)C2 (configuration not stated),inactive: 0.059%
20,O=C1C(=O)c2ccccc2-c2ccccc21,inactive: 6.98%
21,CCOC(=O)C(C)Oc1cc(C)cc2oc(=O)c3c(c12)CCCC3 (configuration not stated),inactive: -17.7%
22,CN1CC[C@@]23CCCC[C@@H]2[C@@H]1Cc1ccc(O)cc13,inactive: -15%
23,C[N+](C)(C)Cc1ccccc1,inactive: 4.06%
24,CCC(COC(=O)c1cc(OC)c(OC)c(OC)c1)(c1ccccc1)N(C)C (configuration not stated),inactive: -0.969%
25,O=c1[nH]c(=S)n(-c2ccccc2)c(O)c1/C=N/N1CCCCC1c1cccnc1 (configuration not stated),inactive: -1.72%

row,SMILES,growth inhibition
1,COC(=O)C1=C(C)NC(C)=C(C(=O)OC)C1c1ccccc1[N+](=O)[O-],inactive: -1.79%
2,Cc1ccc2c(c1)C1CN(C)CCC1N2C(=O)Nc1cccc(Cl)c1 (configuration not stated),inactive: -6.57%
3,CCN(CC)CCOC(=O)C(O)(c1ccccc1)c1ccccc1,inactive: -5.93%
4,C[C@]12CC[C@@H]3c4ccc(O)c(O)c4CC[C@H]3[C@@H]1CC[C@@H]2O,inactive: -9.37%
5,O=C1C=Cc2ccccc2C1=O,inactive: 3.99%
6,C[C@]12CCC(=O)C(O)=C1CC[C@@H]1[C@@H]2CC[C@]2(C)C(=O)CC[C@@H]12,inactive: -2.97%
7,CC(=O)c1ccc(-c2ccccc2)cc1,inactive: -6.42%
8,CCCC(=O)OCC[N+](C)(C)C,inactive: -12.8%
9,CC(C)C(=O)Nc1ccc(S(=O)(=O)N2CC3CC(C2)c2cccc(=O)n2C3)cc1 (configuration not stated),inactive: 0.68%
10,O=Cc1cn(Cc2ccc(F)cc2)c2ccccc12,inactive: -5.49%
11,c1ccc2c(c1)[nH]c1cnccc12,inactive: -1.24%
12,COc1ccccc1CN1CCCCC1c1cccnc1 (configuration not stated),inactive: 7.73%
13,Nc1ccc([As](=O)(O)O)cc1,inactive: -2.46%
14,CC12CN3CC(C)(CN(C1)C3c1cccs1)C2=O (configuration not stated),inactive: 1.89%
15,O=c1[nH]c2ccccc2n1C1CCN(CCCC(c2ccc(F)cc2)c2ccc(F)cc2)CC1,inactive: -4.94%
16,CC(=O)Nc1cc([As](=O)(O)O)ccc1O,inactive: 0.452%
17,Cc1cc(Cl)ccc1OC(C)C(=O)O (configuration not stated),inactive: -11.9%
18,CC12CN3CC(C)(CN(C1)C3c1cccnc1)C2=O (configuration not stated),inactive: -1.32%
19,C[C@]12CCC(=O)C=C1CCC1C2CC[C@@]2(C)C1CC[C@@]2(O)CC#N (some centres not stated),inactive: -4.64%
20,CN[C@H](C)[C@H](O)c1ccccc1,inactive: 10.8%
21,CN1[C@@H]2CC[C@H]1CC(OC(=O)C1C=Nc3ccccc31)C2 (some centres not stated),inactive: -13.3%
22,CCCC(C)(COC(N)=O)COC(=O)NC(C)C (configuration not stated),inactive: 14.3%
23,C[C@]12CCC(=O)C=C1CC[C@@H]1[C@@H]2CC[C@]2(C)C(=O)CC[C@@H]12,inactive: -1.01%
24,OC(c1ccccc1)(c1ccccc1)C1CCNCC1,inactive: -11.9%
25,COc1ccc(-c2nc3ccccc3c(=O)o2)cc1,inactive: 12.1%

row,SMILES,growth inhibition
1,C[C@H]1OC[C@@H](C[N+](C)(C)C)O1,inactive: 2.67%
2,O=C1CSC2N1CCNC21CCCCC1 (configuration not stated),inactive: -18.1%
3,COc1cccc(Oc2c(C)oc3cc(OC(=O)N(C)C)ccc3c2=O)c1,inactive: -7.36%
4,COc1ccc(OC)c(C(O)C(C)N)c1 (configuration not stated),inactive: 3.01%
5,COc1ccc(CN2CC3CC(C2)c2cccc(=O)n2C3)cc1OC (configuration not stated),inactive: -2.34%
6,COc1ccc(NC2=NCC(C)S2)cc1 (configuration not stated),inactive: 0.069%
7,c1ccc2c3c([nH]c2c1)CNCC3,inactive: 5.45%
8,CN(C)[C@@H]1C(=O)C(C(N)=O)=C(O)[C@@]2(O)C(=O)C3=C(O)c4c(O)cccc4[C@@](C)(O)[C@H]3[C@H](O)[C@@H]12,inactive: -12.9%
9,Cn1c(O)c(C=NCCc2c[nH]c3ccccc23)c(=O)n(C)c1=O,inactive: -4.75%
10,CCOc1ccc(N2C(=O)NC(=O)/C(=C\c3cc(OC)c(OC)cc3[N+](=O)[O-])C2=O)cc1,inactive: -0.939%
11,CC(C)CCC1(CN2CCCC2=O)C(=O)NC(=O)NC1=O,inactive: 1.6%
12,CC(=O)[C@H]1CC[C@H]2[C@@H]3CC[C@H]4C[C@H](O)CC[C@]4(C)[C@H]3C(=O)C[C@]12C,inactive: -16.3%
13,C[C@H]1CCCC(=O)CCCCCc2cc(O)cc(O)c2C(=O)O1,inactive: -3.26%
14,CN1C[C@H](CNC(=O)OCc2ccccc2)C[C@@H]2c3cccc4c3c(cn4C)C[C@H]21,inactive: 3.46%
15,O=C1NCCN2CCCC12 (configuration not stated),inactive: 8.78%
16,OCc1cnc[nH]1,inactive: -6.75%
17,CCN(CC)C(=O)N[C@H]1C[C@@H]2c3cccc4[nH]cc(c34)C[C@H]2N(C)C1,inactive: 12.2%
18,CC12CN3CC(c4ccccc4)(CN(C1)C31CCCCC1)C2=O,inactive: 3.67%
19,CC[C@@H](CO)NC(=O)[C@@H]1C=C2c3cccc4c3c(cn4C)C[C@H]2N(C)C1,inactive: -20.1%
20,c1ccc2c(c1)OCC(C1=NCCN1)O2 (configuration not stated),inactive: 5.59%
21,CC[N+]1(C)CCCC(OC(=O)C(O)(c2ccccc2)c2ccccc2)C1 (configuration not stated),inactive: -1.41%
22,CCn1c(O)c(C(=O)CC2NCCc3ccccc32)c(=O)n(CC)c1=S (configuration not stated),inactive: 4.65%
23,C[N+]1(C)CCc2cc3c(cc2[C@H]1[C@@H]1OC(=O)c2c1ccc1c2OCO1)OCO3,inactive: -13.2% and inactive: -2.04%
24,O=c1c2ccccc2nc(/C=C/c2ccc3c(c2)OCO3)n1-c1ccccc1,inactive: -7.08%
25,C=C1CC[C@@]2(O)[C@H]3Cc4ccc(O)c5c4[C@@]2(CCN3CC2CC2)[C@H]1O5,inactive: -2.05%

row,SMILES,growth inhibition
1,O=C(CCCN1CCC2(CC1)C(=O)NCN2c1ccccc1)c1ccc(F)cc1,inactive: 3.2%
2,Cc1ccc(/C=C2/C(=O)NC(=O)N(C)C2=O)cc1,inactive: 6.36%
3,C=CC1CN2CCC1CC2[C@@H](OC(=O)c1ccc(OC)cc1)c1ccnc2ccccc12 (some centres not stated),inactive: 13.4%
4,NCCc1c[nH]c2ccc(F)cc12,inactive: -2.22%
5,CCOC(=O)c1cncn1C(C)c1ccccc1 (configuration not stated),inactive: 6.7%
6,c1cnc2c(c1)ccc1ncccc12,inactive: -11.8%
7,O=c1cccc2n1C[C@H]1C[C@@H]2CN2CCCC[C@@H]12,inactive: -2.57%
8,CCC1(c2ccccc2)C(=O)N(COC)C(=O)N(COC)C1=O,inactive: -6.92%
9,O=C1CC[C@@]2(O)[C@H]3Cc4ccc(O)c5c4[C@@]2(CCN3CC2CC2)[C@H]1O5,inactive: 2.39%
10,NCC1(c2ccc3c(c2)OCCO3)CCCC1,inactive: 2.84%
11,CN1C(=O)CN=C(c2ccc(Cl)cc2)c2cc(Cl)ccc21,inactive: 5.49%
12,O=c1c2ccccc2[se]n1-c1ccccc1,inactive: 67.8%
13,CC(C)(C)C(O)C(Oc1ccc(Cl)cc1)n1cncn1 (configuration not stated),active: 96.5%
14,c1ccc2c(c1)Nc1ccccc1S2,inactive: 0.934%
15,C[N+]1(C)C2CCC1CC(OC(=O)C(CO)c1ccccc1)C2 (configuration not stated),inactive: -0.34%
16,NCC(O)c1ccc(O)cc1 (configuration not stated),inactive: -11.1%
17,C[C@H]1CC[C@@]2(C)[C@@H](CC[C@@H]3[C@@H]2CC[C@]2(C)[C@@H](O)CC[C@@H]32)C1,inactive: 5.17%
18,S=C1NCCN1,inactive: -3.04%
19,C[N+]1(C)[C@@H]2CC(OC(=O)[C@H](CO)c3ccccc3)C[C@H]1[C@@H]1O[C@@H]12 (some centres not stated),inactive: -0.653% and inactive: 16.1%
20,c1ccc(Cn2ccnc2)cc1,inactive: -14.6%
21,CC(C)C[C@H]1C(=O)N2CCCC2[C@]2(O)O[C@](NC(=O)[C@@H]3C=C4c5cccc6[nH]cc(c56)CC4N(C)C3)(C(C)C)C(=O)N12 (some centres not stated),inactive: 12.7%
22,CC(C)[C@H]1C(=O)N2CCC[C@H]2[C@]2(O)O[C@](NC(=O)[C@@H]3C=C4c5cccc6[nH]cc(c56)C[C@H]4N(C)C3)(C(C)C)C(=O)N12,inactive: 1.01%
